Results on 6 compounds are retold here after PubChem BioAssay (NCATS).

SMILES strings stand for the structures. Some of the results follow. The main result of the screen is listed elsewhere. These columns were measured beside it and carry no call. The list favours compounds with an active or inconclusive main result. The note in brackets gives the kind of curve behind each potency; many fits are weak.

Assay [1] in a line: qHTS Assay for Inhibitors of PDE-IV (AID 607). To be noted: HEK293 ACTOne CNG channel cells, membrane potential fluorescence; measured here: parental cell counter-screen. The gist of the method: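 HEK293 ACTOne cells with CNG channel (1000/well), endogenous PDE4; membrane potential dye, compounds up to 22.9 uM final. Fluorescence Ex 535/Em 590; RO 20-1724 (100 uM final) as reference.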
(In general: Quantitative high-throughput screening tests each substance at several concentrations.)

Assay [2] in a line: qHTS Assay for Lipid Storage Modulators (AID 1519). To be noted: Drosophila S3 cells, BODIPY lipid droplet/cell ratio, laser cytometry, cells loaded with oleic acid. A digest of the protocol:
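Cells seeded at 5,000 per well were treated with compounds over a concentration series and loaded with oleic acid (400 uM, as added). Lipid droplet fluorescence (488 nm excitation, 500-530 nm channel) was read by laser-scanning cytometry and normalized to 20 uM Triacsin C.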

Where [3] appears, read: measured here: cell count channel max response.
[4] abbreviates: measured here: cell number channel AC50.
Where [5] appears, read: measured here: lipid (BODIPY) channel AC50.
Where [6] appears, read: measured here: lipid channel max response.

Take `O=C(NCCCN1CCCCCC1)[C@@H](c1ccccc1)C1CCCCC1`: the AC50 in assay [1] was 12.6 µM [rising, partial curve]; in assay [2] (setting [4]), 7.08 µM [rising, full curve, poor fit]; in assay [2] (setting [5]), 7.08 µM [rising, full curve, poor fit]. For the same compound, the max response in assay [2] (setting [3]) amounted to 35.7%; in assay [2] (setting [6]), 43.4%.

For `COc1ccc(C(=O)N2CCC3(CCCN(c4ccncc4)C3)CC2)cc1`, the AC50 in assay [1] was 12.6 µM [rising, single point]; in assay [2] (setting [4]), 3.16 µM [rising, single point]; in assay [2] (setting [5]), 3.16 µM [rising, partial curve, poor fit]. The results for the max response in assay [2] (setting [3]) and in assay [2] (setting [6]) were 22.8% and 28.7%, respectively.

With `COC(=O)c1ccccc1NC(=O)c1ccc(F)cc1`, the AC50 in assay [1] is 15.8 µM [rising, single point]; in assay [2] (setting [4]), 2.51 µM [rising, full curve]; in assay [2] (setting [5]), 2.51 µM [rising, full curve]. Further, the max response in assay [2] (setting [3]) was found to be 126%; in assay [2] (setting [6]) it was 167%.

For the compound `COc1cccc(Cn2c(=O)c(C)nc3cnc(OCc4ccccc4)nc32)c1`, the AC50 in assay [1] is 10 µM [rising, partial curve]; in assay [2] (setting [4]), 1.12 µM [rising, partial curve, poor fit]; in assay [2] (setting [5]), 0.0251 µM [rising, full curve, poor fit]. For the same compound, the max response is 15.4% in assay [2] (setting [3]) and 17.9% in assay [2] (setting [6]).

Consider `COc1ccc2c(=O)cc(-c3ccc(O)cc3)oc2c1`, for which the AC50 in assay [1] was 15.8 µM [rising, single point]; in assay [2] (setting [4]) it was 7.94 µM [rising, partial curve]; in assay [2] (setting [5]), 8.91 µM [rising, partial curve]. Further, the max response in assay [2] (setting [3]) stood at 111%; in assay [2] (setting [6]) it was 149%.

In the case of `Cc1nc2sccn2c(=O)c1CCN1CCC(=C(c2ccccc2)c2ccc(F)cc2)CC1`, the AC50 was 7.94 µM [rising, partial curve] in assay [1]; 14.1 µM [rising, partial curve] in assay [2] (setting [4]); 14.1 µM [rising, partial curve] in assay [2] (setting [5]). In addition, the max response was 87.3% in assay [2] (setting [3]) and 119% in assay [2] (setting [6]).

For orientation: AC50 means the concentration giving half of the maximal activity seen.
